Each number is a percent effect as filed. How 0% and 100% were set is not recorded. Most values in the screen are low, and negative values occur. This is an unselected part of the compounds tested. Two or more numbers in one place are separate tests of the same structure; such repeats can differ widely.

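Viability assay of Plasmodium falciparum sporozoites; the read-out is not stated. The concentration is filed as 10 mM, unlikely as a test dose, so the dose is not known. Higher reads as lower viability (inferred: compounds with an IC50 in retests scored well above the rest). Strong results were mostly tested again. About 34,000 compounds were tested under these conditions; 0.84% (about 280) showed 50% or more at least once.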

| compound | effect |
|---|---|
| `CC(=O)N1CCC(c2cncc(N3CCCCCC3)n2)CC1` | -135.9 |
| `Cc1cnn(CC2CCCN2C(=O)CCc2ccco2)c1` (stereo not drawn) | 2.775 |
| `[H][C@@]12CN(CCOC)C[C@]1([H])[C@@H](OC)CCN2C(=O)c1cccc(OC)c1` | 4.084 |
| `O=C(Cc1cn2ccsc2n1)N1CCCC(n2cncn2)C1` (stereo not drawn) | 4.026 |
| `CC(=O)N1CCCC(c2nccnc2Nc2nc(C)cc(C)n2)C1` (stereo not drawn) | 5.834 |
| `O=C(O)C(F)(F)F.O=C(O)C(F)(F)F.[H][C@]12CCN(C(=O)C(C)C)CC[C@@]1([H])S(=O)(=O)CCN2Cc1cccnc1` | 3.421 |
| `c1ccc(-c2nc(CNC3CCc4ncnn4C3)no2)cc1` (stereo not drawn) | -2.728 |
| `Nc1ncc2c(n1)CN(C1CCCC1)C2=O` | -14.39 |
| `O[C@H]1CN(CCCOc2ccccc2F)CC[C@@]12CCCO2` | 14 |
| `Cc1cccc(C2(C(=O)NC(C)Cn3ccnc3)CC2)c1` (stereo not drawn) | 15.85 |
| `CN1CCCC(c2cccc(-c3cccc(Cl)c3)n2)C1` (stereo not drawn) | 9.235 |
| `CCSc1cc(C(=O)NCCC(=O)Nc2ccccn2)ccn1` | 10.04 |
| `CC(CNC(=O)c1ccc(C#N)cc1)N1CCc2ccccc21` (stereo not drawn) | -18.38 and -11.35 |
| `[H][C@@]12C[C@H](C)O[C@]1([H])CCN(C(=O)C1=CCCCC1)C2` | 0 |
| `O=C(CN1CCCCC1)NCc1cccnc1-n1cnc2ccccc21` | -10.03 |
| `CC(=O)N1CCC(c2ncc(C(=O)Nc3ccc(F)cc3)c(C)n2)CC1` | 12.51 |
| `O=C(CCOc1ccccc1F)N1CCOCC1` | 5.909 and -24.94 and -20.46 |
| `O=C(NCc1cccnc1N1CCCC(O)C1)c1ccc2[nH]nnc2c1` (stereo not drawn) | 2.507 |
| `c1ccc(N2CCOC(Cc3cccnc3)C2)cc1` (stereo not drawn) | 6.835 |
| `COCCNC(=O)c1ccccc1-n1cc(CN)cn1` | 0.9653 |
| `COc1c(C2CCCN2Cc2nccn2C)c(C)nn1C` (stereo not drawn) | -18.51 |
| `CC(C)CN(Cc1ccc(O)c(C(=O)O)c1)Cc1cnn(C)c1` | -7.929 |
| `N#Cc1ccc(C(=O)NS(=O)(=O)c2ccc(F)c(F)c2)cc1` | 0.7105 |
| `Cc1cc2ncn(C(=O)N3CCCCC3)c2cc1C` | -3.939 |
| `Cl.NC(=O)N1CC2(CCNCC2)c2cc(Cl)ccc21` | 1.671 |
| `CC(C)c1cc(COCCC(=O)O)no1` | 11.39 |
| `CC(=O)NC1CCCN(C(=O)NCc2cc[nH]n2)C1` (stereo not drawn) | -1.899 |
| `[H][C@@]12CCCN1C[C@H](Cc1ccccc1)N(Cc1cnn(C=C)c1C)C2` | -15.28 |
| `CCc1cnc(N2CCc3cc(C(=O)NC)c(N(C)C)nc3CC2)nc1.O=C(O)C(F)(F)F` | 0.8439 |
| `COc1ccc(Cl)cc1NCC(=O)NCCNc1ncccn1` | 3.187 |
| `COc1c(CNC2CCc3c(F)cccc32)c(C)nn1C.Cl` (stereo not drawn) | 0.6077 |
| `CC(C)COCC1CN(Cc2ccoc2)Cc2ncn(C)c21` (stereo not drawn) | -7.789 |
| `COC(=O)CC(NC(=O)c1ccc(OC)cc1OC)c1cccs1` (stereo not drawn) | 3.769 |
| `COc1ccccc1C1(C(=O)NCCN2CCCCC2)CCOCC1` | 7.717 |
| `CCCN1CCCn2nc(CNC(=O)CCc3scnc3C)cc2C1` | -0.224 |
| `CC(C(=O)Nc1ccc(N2CCCC2)nc1)n1ccnc1` (stereo not drawn) | -5.6 |
| `CC(=O)N[C@@H]1CN(C(=O)c2cnc3ccccc3c2)C[C@H]1O` | -1.215 |
| `CCc1nnc(CN2CCCCC2Cn2cncn2)o1` (stereo not drawn) | 4.194 |
| `CC(C)Cc1nc(CN(C)c2cc(C(C)C)nc3ccnn23)no1` | -5.077 |
| `Cc1cnn(CC2CCCN2C(=O)c2c(F)cccc2Cl)c1` (stereo not drawn) | -3.579 |
| `CCOCC(O)CN1CCN(C(=O)c2ccc3c(c2)COC3)CC1` (stereo not drawn) | 15.15 |
| `CSc1ccc(C(=O)N2CCCC(Nc3ccc(F)cc3)C2)cc1` (stereo not drawn) | -12.02 |
| `COCCCNC(=O)CN(C)C(=O)c1cc(C)ccc1N(C)C(C)C` | 1.921 |
| `CC(=O)N(C)c1nc(CN2CCOC(Cn3cc(C)cn3)C2)cs1` (stereo not drawn) | -7.399 |
| `CSc1ccccc1CN1CCCn2nc(CNC(=O)N(C)C)cc2C1` | 2.952 |
| `CN1CCN(Cc2cnc3n2CCN(C(=O)c2ccnnc2)C3)CC1` | 8.754 |
| `O=C(CCCc1nc2ccccc2[nH]1)N1CCCC(n2cccn2)C1` (stereo not drawn) | -15.83 |
| `[H][C@@]12OCCN(C(=O)c3ccc(C)o3)[C@@]1([H])CC[C@H]2OC` | 11.73 |
| `CC(O)CN1CCN(Cc2cccc(C(=O)N(C)C)c2)CC1` (stereo not drawn) | 2.423 |
| `CC(C)c1nc(CN2CCCN(c3nccs3)CC2)no1` | 8.149 |
| `O=C(O)CC(O)(CC(=O)O)C(=O)O.[H][C@@]12CC[C@@](O)(c3ccc(C)cn3)[C@]1([H])CN(Cc1ccccc1F)C2` | 10.19 |
| `CCOc1ccccc1-c1noc(CN2CC(n3cccn3)C2)n1` | -6.705 |
| `CSCC(CCO)NC(=O)Nc1cccc(Br)c1` (stereo not drawn) | -2.007 |
| `COc1ccccc1C1CNCCN1C(=O)c1ccc(F)cc1` (stereo not drawn) | -4.621 |
| `CC[C@@H]1N(Cc2ccoc2)CCC[C@]12CCC(=O)N2CCOC.O=C(O)C(F)(F)F` | 0.08772 |
| `O=C(Cc1ccc(F)cc1)N1CCCCC1c1ccn2ccnc2n1` (stereo not drawn) | 6.28 |
| `O=C(O)C(F)(F)F.O=C(O)C(F)(F)F.[H][C@@]12CC(=O)N(Cc3cccc(C)n3)[C@@]1([H])CCN2Cc1ccc(OC)cc1` | -2.708 |
| `[H][C@]12CCN(c3ncccc3C)C[C@]1(COC)CC[C@@H](N1CCOCC1)C2` | -8.269 |
| `[H][C@@]12CCCCCN(C)[C@@]1([H])[C@H](c1ccccc1)CN2C(=O)c1cccnc1` | 3.337 |
| `COCC1CN(Cc2ccc(C)o2)Cc2nnn(CC3CC3)c21.O=C(O)C(F)(F)F` (stereo not drawn) | -10.03 |
| `CN1CCCCC1c1ccc(-n2ccnc2)nc1` (stereo not drawn) | -3.772 |
| `COCCCNC(=O)c1ccccc1S(C)(=O)=O` | -4.387 |
| `CC(C(=O)NCc1ccnc(N2CCCC2)c1)n1cncn1` (stereo not drawn) | 5.441 |
| `Cc1ccc(C)c(C(=O)CN2C(=O)c3ccccc3CS2(=O)=O)c1` | -12.12 |
| `NC(=O)c1nc2c(s1)CCN(C(=O)Nc1cccc(Cl)c1)CC2` | -2.6 |
| `Cc1cn([C@@H]2CC3(CCNCC3)OC[C@@]2(C)O)c(=O)[nH]c1=O` | -1.395 |
| `CN1CC(Oc2ccc(Cl)cc2)=NC(SCC(=O)Nc2ccccc2)=N1` | -8.27 |
| `CC(C)(C)c1nnc(CN2CCCC2c2noc(C3CC3)n2)o1` (stereo not drawn) | 13.28 |
| `COc1ccc(CN(C)CCS(=O)(=O)c2ccc(Cl)cc2)cc1OC` | -6.91 |
| `CC(C)(CO)Nc1c(NCc2ccccc2)c(=O)c1=O` | -4.995 |
| `O=C(O)COc1ccc(CN2CCCC(Cc3cccnc3)C2)cc1` (stereo not drawn) | 4.537 |
| `Cc1cn2c(n1)CCC(NC(=O)CCOc1ccccc1F)C2` (stereo not drawn) | -9.069 |
| `Cc1cnn(CCNCc2c(C)nn(C)c2Cl)c1` | -20.1 |
| `CC(C)S(=O)(=O)N1CCC(Cc2cccc(C(=O)O)c2)C1` (stereo not drawn) | -12.25 |
| `c1coc(-c2nc(CN3CCCC(Cn4cncn4)C3)cs2)c1` (stereo not drawn) | 8.049 |

For reference, 9 entries once more:

CSc1ccc(C(=O)N2CCCC(Nc3ccc(F)cc3)C2)cc1 (stereo not drawn) read -12.02%.
Cc1cccc(C2(C(=O)NC(C)Cn3ccnc3)CC2)c1 (stereo not drawn) read 15.85%.
CSc1ccccc1CN1CCCn2nc(CNC(=O)N(C)C)cc2C1 read 2.952%.
O=C(Cc1ccc(F)cc1)N1CCCCC1c1ccn2ccnc2n1 (stereo not drawn) read 6.28%.
COCCNC(=O)c1ccccc1-n1cc(CN)cn1 read 0.9653%.
COc1c(CNC2CCc3c(F)cccc32)c(C)nn1C.Cl (stereo not drawn) read 0.6077%.
CC(=O)NC1CCCN(C(=O)NCc2cc[nH]n2)C1 (stereo not drawn) read -1.899%.
CC(=O)N(C)c1nc(CN2CCOC(Cn3cc(C)cn3)C2)cs1 (stereo not drawn) read -7.399%.
CC(C)c1nc(CN2CCCN(c3nccs3)CC2)no1 read 8.149%.

Source: ChEMBL document CHEMBL3988442, “University of Dundee, Small-Polar-MMV Screening Library” (2021).